According to publication PMC11887511 (Crystal Growth & Design, 2025):

Legend:
[1] = Facet specific crystal growth rates of α-gly seed crystals in a flow cell; settings: 1 mol % additive, water, 15 °C
[2] = Metal incorporated into bulk α-gly crystals, elemental analysis (ICP-OES); settings: α-gly crystals grown with 1 mol % metal salt, aqueous, S 1.3-1.45; a = below detection limit
[3] = Metal incorporated at α-gly crystal facets, XPS; settings: α-gly crystals grown with 1 mol % metal salt, aqueous, S 1.3-1.45; trends rather than absolute values

| Structure (SMILES) | effect on growth of the {011} faces of α-gly [1] | effect on growth rates of the {020} faces of α-gly [1] | mol % of metal in bulk [2] | mol % of metal in {011} [3] [%] |
| --- | --- | --- | --- | --- |
| O=C(O)c1ccccc1O [SA, salicylic acid] | noticeable inhibition effect | minor impact | – | – |
| O=C(O)CC(=O)O [MA, malonic acid] | noticeable inhibition effect | minor impact | – | – |
| [Cl-].[Cl-].[Zn+2] [Zn(II), zinc(II) chloride] | – | – | <0.1 ^a % | 2 |
| [Cl][Cu][Cl] [Cu(II), copper(II) chloride] | – | – | 0.14% | 5 |
| O.O.O.O.[Cl][Fe][Cl] [Fe(II), iron(II) chloride tetrahydrate] | – | – | 0.27% | 12 |
| O=C(O)CNCC(=O)O [IDA, iminodiacetic acid] | very effective crystal growth inhibitor | very effective crystal growth inhibitor | – | – |

Marks after values point to notes of the source that are not given here.
